Measurements as given in publication PMC7721900, “Assembly properties of bacterial tubulin homolog FtsZ regulated by the positive regulator protein ZipA and ZapA from Pseudomonas aeruginosa” (Scientific Reports, 2020).
No constants are given. Whether binding was seen depends on the method and setting. Some entries that bind do so weakly or less than the wild type.

What was measured:
[1] = target: T1, FtsZ from Pseudomonas aeruginosa (P. aeruginosa, UniProt P47204 1-394); assay: condition: only in HEK buffer (1 mM EDTA, no Mg, pH 7.5); 10 µM PaFtsZ; negative stain electron microscopy; HEK buffer (50 mM HEPES, 100 mM KAc, 1 mM EDTA, pH 7.5), GTP, room temperature; 10 µM PaFtsZ alone; both purified
T1 construct: FtsZ, Pseudomonas aeruginosa; cloned in pET15b at NdeI/BamHI; Forms protofilaments and bundles with GTP; also called PaFtsZ; source: E. coli BL21 (pET15b), purified (Talon column, thrombin, source Q 10/10)
T1 sequence (looked up): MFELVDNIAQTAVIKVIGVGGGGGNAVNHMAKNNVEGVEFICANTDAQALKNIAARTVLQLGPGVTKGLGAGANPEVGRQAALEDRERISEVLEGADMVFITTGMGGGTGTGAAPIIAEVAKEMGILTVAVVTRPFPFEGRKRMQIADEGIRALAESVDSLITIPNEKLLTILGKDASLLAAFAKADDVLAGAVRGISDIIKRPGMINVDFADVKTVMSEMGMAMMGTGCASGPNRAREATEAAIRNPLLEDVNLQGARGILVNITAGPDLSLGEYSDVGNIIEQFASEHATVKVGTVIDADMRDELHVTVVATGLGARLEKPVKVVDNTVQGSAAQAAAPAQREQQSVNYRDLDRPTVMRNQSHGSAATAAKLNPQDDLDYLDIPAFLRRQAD

[2] = target: T1, FtsZ from Pseudomonas aeruginosa; assay: negative stain electron microscopy; HEK buffer (50 mM HEPES, 100 mM KAc, 1 mM EDTA, pH 7.5), GTP, room temperature; 10 µM PaFtsZ alone; both purified
[3] = target: T1, FtsZ from Pseudomonas aeruginosa; assay: condition: only in HEK buffer (1 mM EDTA, no Mg, pH 7.5); 5 µM PaFtsZ with 10 µM ZapA; negative stain electron microscopy; HEK buffer (50 mM HEPES, 100 mM KAc, 1 mM EDTA, pH 7.5), GTP, room temperature; 5 µM PaFtsZ with 10 µM ZapA; both purified

Q: “FtsZ from Pseudomonas aeruginosa (from UniProt P47204 1-394)” was tested. Which binding [1] did it give?
A: Its binding is “no binding”.

Q: What about the binding [2] of the same substance?
A: Its binding is “binds weakly”.

Q: What about the binding [3] of the same substance?
A: The binding was “no binding”.
